# Experimental data from patent publication US20230218519A1, “FLUID GEL COMPOSITIONS” (The University of Birmingham, priority 2020, published 2023).
# At least one structure is not confirmed: it was looked up by name or label, or the drawing left a doubt.
# Assay: Release assay from PEG-DA fluid gel (trans-well, UV/Vis)
# Type: physicochemical
# Conditions: 3% v/v PEG-DA fluid gel (Example 5.3, 500 rpm), into PBS at 37° C., 5 hrs
# Description: • Active amounts: […] • Standard concentrations of active in PBS were prepared. • Standards were pipetted into a quartz cuvette (1 mm pathlength). • UV/Vis spectroscopy was used to measure absorbance between 200 and 700 nm wavelength. • Curves were plotted and used to determine standard curves which were used to determine concentrations. • 0.5 ml PBS was added to the well of a 24 well plate. • The PBS was incubated at 37° C. to equilibrate. • 0.1 ml of the fluid gel containing active was placed in a trans-well insert. • The trans-well insert was placed into a well containing PBS. • After a given time period the trans-well insert was removed and placed in a fresh well of PBS. • The release media was then removed and analysed using […] spectroscopy. Concentrations were derived from the standard curves and cumulative release plotted as a function of time.
compound,measurement,value
C[C@@H]1C[C@H]2[C@@H]3CCC4=CC(=O)C=C[C@]4(C)[C@@]3(F)[C@@H](O)C[C@]2(C)[C@@]1(O)C(=O)CO [dexamethasone],release of active agent from fluid gel,able to release
